Results on 4 substances are retold here after publication PMC12638823.

Amino acid sequences for entries named in this document (tags omitted). A change or cut given only in a name is not applied to a line headed by its entry.
UniProt Q9NYV6: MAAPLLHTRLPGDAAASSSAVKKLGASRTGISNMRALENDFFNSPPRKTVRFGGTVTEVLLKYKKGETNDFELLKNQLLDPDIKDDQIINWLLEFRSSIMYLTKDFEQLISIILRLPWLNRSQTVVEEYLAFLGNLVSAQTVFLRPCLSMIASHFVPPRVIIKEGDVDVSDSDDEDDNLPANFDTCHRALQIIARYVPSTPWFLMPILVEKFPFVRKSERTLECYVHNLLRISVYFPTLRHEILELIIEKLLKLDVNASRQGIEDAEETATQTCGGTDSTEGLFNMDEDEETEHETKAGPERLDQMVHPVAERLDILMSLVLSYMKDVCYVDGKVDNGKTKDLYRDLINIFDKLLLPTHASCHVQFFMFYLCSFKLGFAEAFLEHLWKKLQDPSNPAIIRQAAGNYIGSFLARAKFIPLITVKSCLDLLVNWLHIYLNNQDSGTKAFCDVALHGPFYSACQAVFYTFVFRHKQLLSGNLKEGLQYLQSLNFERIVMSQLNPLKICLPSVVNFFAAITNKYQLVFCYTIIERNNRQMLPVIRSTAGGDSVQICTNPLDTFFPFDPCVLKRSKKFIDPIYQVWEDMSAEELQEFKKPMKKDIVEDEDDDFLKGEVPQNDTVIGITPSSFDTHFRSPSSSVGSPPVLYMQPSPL
UniProt P11940: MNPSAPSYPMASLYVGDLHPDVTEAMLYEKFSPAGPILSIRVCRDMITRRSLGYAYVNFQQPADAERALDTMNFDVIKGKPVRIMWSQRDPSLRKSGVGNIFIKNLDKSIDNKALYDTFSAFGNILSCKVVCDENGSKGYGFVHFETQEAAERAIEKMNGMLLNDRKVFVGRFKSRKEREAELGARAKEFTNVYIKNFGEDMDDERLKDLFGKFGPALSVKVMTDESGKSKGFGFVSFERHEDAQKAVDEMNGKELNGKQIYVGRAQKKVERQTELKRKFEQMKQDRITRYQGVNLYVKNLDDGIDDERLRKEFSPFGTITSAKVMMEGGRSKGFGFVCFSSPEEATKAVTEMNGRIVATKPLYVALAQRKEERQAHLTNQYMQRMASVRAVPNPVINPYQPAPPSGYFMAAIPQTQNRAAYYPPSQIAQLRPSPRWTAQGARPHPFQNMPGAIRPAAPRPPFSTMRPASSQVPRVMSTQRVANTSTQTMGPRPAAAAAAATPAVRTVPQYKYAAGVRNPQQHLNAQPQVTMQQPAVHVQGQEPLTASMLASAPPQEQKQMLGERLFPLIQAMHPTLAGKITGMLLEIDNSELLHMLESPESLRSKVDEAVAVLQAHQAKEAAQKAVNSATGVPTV

The target of experiment [1] is V5-tagged RRN3 (stably expressed in SK-OV-3 cells) (human) (UniProt Q9NYV6). The experiment is described as follows: co-IP; anti-V5 immunoprecipitation from SK-OV-3 cells overexpressing V5-tagged RRN3; western blot for PABPC1. For orientation: In western blotting, separated proteins are transferred to a membrane and probed.
Experiment [2] has as its target PABPC1 (endogenous, SK-OV-3 cells) (human (endogenous in SK-OV-3)) (UniProt P11940). The experiment is described as follows: co-IP; SK-OV-3 cells treated with Rapamycin (500 nM, 24 h) or DMSO control; immunoprecipitation with anti-PABPC1 antibody.
Experiment [3] deals with Flag-tagged PABPC1 (HEK 293T) (UniProt P11940). The experiment is described as follows: co-IP; HEK 293T transiently transfected with V5-tagged RRN3 (WT or S199D) together with Flag-tagged PABPC1; immunoprecipitation with anti-Flag antibody.

No constants are given. Whether binding was seen depends on the method and setting. In cells and extracts the contact can be indirect. Some results given as binding are weak or reduced against the parent protein; the word gives no strength.

Take “PABPC1 (endogenous, SK-OV-3 cells) (from UniProt P11940 1-636)”: the binding result in experiment [1] is “binds”.

“RRN3 (endogenous, SK-OV-3 cells) (from UniProt Q9NYV6 1-651)”: the binding entry in experiment [2] is “binds”. Take “V5-tagged S199D-mutated RRN3 (HEK 293T) (from UniProt Q9NYV6 1-651)”: the binding entry in experiment [3] is “binds”. For the substance “V5-tagged wild type (WT) RRN3 (HEK 293T) (from UniProt Q9NYV6 1-651)”, the binding result in experiment [3] is listed as “binds”.
